From patent US20200055918A1, “NOVEL MINOR HISTOCOMPATIBILITY ANTIGENS AND USES THEREOF” (UNIVERSITÉ DE MONTRÉAL, priority 2017, published 2020)
Several values for one entry are separate records, joined by “and”; a condition that tells them apart may be missing. Identical values can stand only once. The expression values are mRNA levels of the gene; the protein chain is shown to identify it.

Experiments:
[1] = system: MiHA-coding genes in AML samples; experiment: Expression (RPKM) of MiHA-coding genes in 179 AML samples, TCGA RNA-Seq; parameters: species or system human; conditions: mean MiHA gene expression in primary AML samples from TCGA
[2] = system: genes coding for the identified MiHAs; experiment: Ratio of MiHA gene expression in bone marrow compared to skin, public RNA-Seq data; parameters: species or system human; conditions: relative BM/skin expression of the MiHA-coding transcripts

## LRIQ/HQREQL (LRIQQREQL) [MiHA No. 44]
[1]
  AMLs (RPKM): 31.03 RPKM
[2]
  BM/skin ratio: 8.07

## TPVDDR/SSL (TPVDDRSL) [MiHA No. 75]
[1]
  AMLs (RPKM): 7.21 RPKM
[2]
  BM/skin ratio: 2.08

## EEALGLYH/QW (EEALGLYHW) [MiHA No. 18]
[1]
  AMLs (RPKM): 41.48 RPKM
[2]
  BM/skin ratio: 8.24

## EEADGN/HKQWW (EEADGNKQWW) [MiHA No. 17]
[1]
  AMLs (RPKM): 13.41 RPKM
[2]
  BM/skin ratio: 2.06

## PH/PRYRPGTVAL (PHRYRPGTVAL) [MiHA No. 48]
[1]
  AMLs (RPKM): 0.52 RPKM
[2]
  BM/skin ratio: 5.62

## GED/GKGIKAL (GEDKGIKAL) [MiHA No. 29]
[1]
  AMLs (RPKM): 19.89 RPKM
[2]
  BM/skin ratio: 4.27

## QERSFQEY/N [MiHA No. 54]
[1]
  AMLs (RPKM): 8.15 RPKM
[2]
  BM/skin ratio: 2.24

## SPRGN/KLPLLL (SPRGNLPLLL) [MiHA No. 66]
[1]
  AMLs (RPKM): 12.69 RPKM
[2]
  BM/skin ratio: 10.08

## APRR/CPPPPP (APRRPPPPP) [MiHA No. 12]
[1]
  AMLs (RPKM): 32.22 RPKM
[2]
  BM/skin ratio: 15.58

## RPPG/EGSGPL (RPPGGSGPL) [MiHA No. 57]
[1]
  AMLs (RPKM): 25.51 RPKM
[2]
  BM/skin ratio: 4.42

## TPRNTYKMTSL/V [MiHA No. 73]
[1]
  AMLs (RPKM): 19.89 RPKM
[2]
  BM/skin ratio: 5.16

## SPD/ESSTPKL (SPDSSTPKL) [MiHA No. 65]
[1]
  AMLs (RPKM): 4.03 RPKM
[2]
  BM/skin ratio: 3.45

## SESKIR/CVLL (SESKIRVLL) [MiHA No. 64]
[1]
  AMLs (RPKM): 7.33 RPKM
[2]
  BM/skin ratio: 3.42

## YPRAGS/RKPP (YPRAGSKPP) [MiHA No. 80]
[1]
  AMLs (RPKM): 8.60 RPKM
[2]
  BM/skin ratio: 3.06

## TAKQKLDPA/V [MiHA No. 71]
[1]
  AMLs (RPKM): 19.89 RPKM
[2]
  BM/skin ratio: 5.16

## EE/KEQSQSPW (EEEQSQSRW) [MiHA No. 24]
[1]
  AMLs (RPKM): 21.37 RPKM
[2]
  BM/skin ratio: 5.49

## S/TVLKPGNSK [MiHA No. 62]
[1]
  AMLs (RPKM): 86.40 RPKM
[2]
  BM/skin ratio: 3.16

## EESAVPE/KPSW [MiHA No. 23]
[1]
  AMLs (RPKM): 15.83 RPKM
[2]
  BM/skin ratio: 2.69

## EELLAVG/SKF [MiHA No. 22]
[1]
  AMLs (RPKM): 19.89 RPKM
[2]
  BM/skin ratio: 4.27

## KEFEDD/GIINW [MiHA No. 34]
[1]
  AMLs (RPKM): 9.83 RPKM
[2]
  BM/skin ratio: 292.97

## SVSKLST/NPK (SVSKLSTPK) [MiHA No. 69]
[1]
  AMLs (RPKM): 16.59 RPKM
[2]
  BM/skin ratio: 2.16

## KY/HMTAVVKLF (KYMTAVVKLF) [MiHA No. 40]
[1]
  AMLs (RPKM): 54.37 RPKM
[2]
  BM/skin ratio: 23.17

## SEESAVPE/KPSW [MiHA No. 63]
[1]
  AMLs (RPKM): 15.83 RPKM
[2]
  BM/skin ratio: 2.69

## LPSKRVSL/I [MiHA No. 43]
[1]
  AMLs (RPKM): 19.89 RPKM
[2]
  BM/skin ratio: 5.16

## EEINLQR/INI (EEINLQRNI) [MiHA No. 19]
[1]
  AMLs (RPKM): 6.09 RPKM

## TVY/CHSPVSR (TVYHSPVSR) [MiHA No. 77]
[1]
  AMLs (RPKM): 22.00 RPKM
[2]
  BM/skin ratio: 3.98

## SQA/SEIEQKI (SQAEIEQKI) [MiHA No. 67]
[1]
  AMLs (RPKM): 49.38 RPKM
[2]
  BM/skin ratio: 2.39

## QE/DLIGKKEY (QELIGKKEY) [MiHA No. 50]
[1]
  AMLs (RPKM): 40.82 RPKM
[2]
  BM/skin ratio: 3.47

## YTDSSSI/VLNY (YTDSSSILNY) [MiHA No. 81]
[1]
  AMLs (RPKM): 10.92 RPKM
[2]
  BM/skin ratio: 4.35

## EEIPV/ISSHY (EEIPVSSHY) [MiHA No. 20]
[1]
  AMLs (RPKM): 10.41 RPKM
[2]
  BM/skin ratio: 18.27

## AE/AIQEKKEI (AEIQEKKEI) [MiHA No. 6]
[1]
  AMLs (RPKM): 3.14 RPKM
[2]
  BM/skin ratio: 2.14

## APRES/NAQAI (APRESAQAI) [MiHA No. 10]
[1]
  AMLs (RPKM): 19.89 RPKM
[2]
  BM/skin ratio: 5.16

## EEIPV/ISSHYF (EEIPVSSHYF) [MiHA No. 21]
[1]
  AMLs (RPKM): 10.41 RPKM
[2]
  BM/skin ratio: 9.01

## DRFVARK/R/M/TL (DRFVARKL) [MiHA No. 15]
[1]
  AMLs (RPKM): 8.60 RPKM
[2]
  BM/skin ratio: 3.06

## A/SEIEQKIKEY [MiHA No. 2]
[1]
  AMLs (RPKM): 49.38 RPKM
[2]; listed as RASSF1-1A/S
  BM/skin ratio: 2.54 and 2.39

## ESKIR/CVLL (ESKIRVLL) [MiHA No. 27]
[1]
  AMLs (RPKM): 7.33 RPKM
[2]
  BM/skin ratio: 3.52

## QEN/DIQ/HNLQL (QENIQNLQL) [MiHA No. 51]
[1]
  AMLs (RPKM): 10.85 RPKM
[2]
  BM/skin ratio: 3.33

## KY/HMTAVVKL (KYMTAVVKL) [MiHA No. 39]
[1]
  AMLs (RPKM): 54.37 RPKM
[2]
  BM/skin ratio: 23.17

## GTLSPSLGNSSI/VLK (GTLSPSLGNSSILK) [MiHA No. 31]
[1]
  AMLs (RPKM): 28.38 RPKM
[2]
  BM/skin ratio: 2.42

## KRVGASYER/W/G [MiHA No. 37]
[1]
  AMLs (RPKM): 23.59 RPKM
[2]
  BM/skin ratio: 2.66

## TLN/SERFTSY (TLNERFTSY) [MiHA No. 72]
[1]
  AMLs (RPKM): 51.39 RPKM
[2]
  BM/skin ratio: 7.24

## SRVLQN/KVAF (SRVLQNVAF) [MiHA No. 68]
[1]
  AMLs (RPKM): 9.83 RPKM
[2]
  BM/skin ratio: 292.97

## DRANRFEY/*L (DRANRFEYL) [MiHA No. 14]
[1]
  AMLs (RPKM): 35.80 RPKM
[2]
  BM/skin ratio: 2.05

## APREP/QFAHSL (APREPFAHSL) [MiHA No. 9]
[1]
  AMLs (RPKM): 4.03 RPKM
[2]
  BM/skin ratio: 2.37

## VYNNIMRH/RYL (VYNNIMRHYL) [MiHA No. 79]
[1]
  AMLs (RPKM): 7.46 RPKM
[2]
  BM/skin ratio: 3.29

## EE/GRGENTSY (EERGENTSY) [MiHA No. 16]
[1]
  AMLs (RPKM): 7.48 RPKM
[2]
  BM/skin ratio: 9.49

## TPRPIQSSL/P [MiHA No. 74]
[1]
  AMLs (RPKM): 46.39 RPKM
[2]
  BM/skin ratio: 6.85

## KEINEKSN/SIL (KEINEKSNIL) [MiHA No. 35]
[1]
  AMLs (RPKM): 42.29 RPKM
[2]
  BM/skin ratio: 3.49

## ELQA/SRLAAL (ELQARLAAL) [MiHA No. 25]
[1]
  AMLs (RPKM): 30.74 RPKM
[2]
  BM/skin ratio: 2.07

## MPSHLRNT/ILL (MPSHLRNTLL) [MiHA No. 45]
[1]
  AMLs (RPKM): 34.04 RPKM
[2]
  BM/skin ratio: 3.64

## R/GIFASRLYY (RIFASRLYY) [MiHA No. 55]
[1]
  AMLs (RPKM): 1.61 RPKM
[2]
  BM/skin ratio: 13.73

## GRA/EGIVARL (GRAGIVARL) [MiHA No. 30]
[1]
  AMLs (RPKM): 15.09 RPKM
[2]
  BM/skin ratio: 2.66

## IYPQV/LLHSL (IYPQVLHSL) [MiHA No. 33]
[1]
  AMLs (RPKM): 36.60 RPKM
[2]
  BM/skin ratio: 2.28

## MPSHLRNT/ILLM (MPSHLRNTLLM) [MiHA No. 46]
[1]
  AMLs (RPKM): 34.04 RPKM
[2]
  BM/skin ratio: 3.64

## APRPFGSVF/S [MiHA No. 11]
[1]
  AMLs (RPKM): 5.47 RPKM
[2]
  BM/skin ratio: 2.00

## RANLRAT/A/NKL (RANLRATKL) [MiHA No. 56]
[1]
  AMLs (RPKM): 28.06 RPKM
[2]
  BM/skin ratio: 5.21

## T/PARPQSSAL (TARPQSSAL) [MiHA No. 70]
[1]
  AMLs (RPKM): 4.42 RPKM
[2]
  BM/skin ratio: 5.81

## QELDG/RVFQKL [MiHA No. 52]
[1]
  AMLs (RPKM): 16.48 RPKM
[2]; listed as ZWINT-1G/R
  BM/skin ratio: 2.80 and 2.61

## RPPG/EGSGPLL/H/R/P (RPPGGSGPLL) [MiHA No. 58]
[1]
  AMLs (RPKM): 25.51 RPKM
[2]
  BM/skin ratio: 4.42

## KVKTSLNEQM/TY (KVKTSLNEQMY) [MiHA No. 38]
[1]
  AMLs (RPKM): 23.41 RPKM
[2]
  BM/skin ratio: 3.82

## AELQS/APLAA (AELQSRLAA) [MiHA No. 7]
[1]
  AMLs (RPKM): 30.74 RPKM
[2]
  BM/skin ratio: 2.59
